Source: PubChem BioAssay AID686943 (Drosophila RNAi Screening Center, 2013)

- Purpose: 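Fly genes whose loss alters ERK activation after insulin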 (primary screen)
- System: Drosophila S2R+ haemocyte-like cells expressing YFP-tagged ERK (Rolled)
- Reagent: long dsRNA against Drosophila genes
- Challenge: insulin stimulation versus unstimulated cells; dose and duration not given
- Measurement: 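Per-plate z-scores of phospho-ERK immunostaining normalised to YFP-tagged ERK, measured with and without insulin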
- Reading the numbers: replicate 1, z-score of dpERK with insulin and replicate 2, z-score of dpERK with insulin: higher = more active ERK per ERK-YFP after insulin; replicate 1, z-score of dpERK under basal conditions: higher = more basal active ERK per ERK-YFP; replicate 1, z-score of ERK-YFP with insulin: higher = more YFP-tagged ERK signal
In all, the deposit lists about 23,000 reagents; this is a random part of those that have a named target and a result. 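Extra replicates exist only for a retested subset of genes; insulin dose and duration not given; both raised and lowered dpERK matter.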 A plus sign joins genes that one reagent is predicted to hit. Reagent sequences are not shown. The record does not give: the amount of reagent, the time to read-out.

predicted target	amplicon	replicate 1, z-score of dpERK with insulin	replicate 2, z-score of dpERK with insulin	replicate 1, z-score of dpERK under basal conditions	replicate 1, z-score of ERK-YFP with insulin
Gr36a (Gustatory receptor 36a)	DRSC22663	-0.25	-0.07	1.01	-0.17
AsnRS-m (Asparaginyl-tRNA synthetase, mitochondrial)	DRSC07010	0.81	0.4	0.03	0.1
mRpS28 (mitochondrial ribosomal protein S28)	DRSC06939	-0.5	0.23	-0.45	1.5
robo2 (roundabout 2)	DRSC00377	0.87	-0.56	-0.11	-0.37
robo2 (roundabout 2)	DRSC00378	0.32	-0.66	-0.91	0.18
robo2 (roundabout 2)	DRSC00686	0.3	-0.18	0.17	0.1
robo2 (roundabout 2)	DRSC00691	1.65	0.76	0.24	0.4
CG34178 + CG34177	DRSC00351	0	-0.07	-0.16	-0.42
Unc-115b + p24-2 + Unc-115a	DRSC16502	0.27	0.22	-0.28	-0.04
Hsp67Bc (Heat shock gene 67Bc)	DRSC11193	0.61	0.26	-0.54	-0.62
lncRNA:roX2 (long non-coding RNA on the X 2)	DRSC22237	0.03	0.29	-1.12	-0.33
TotA (Turandot A)	DRSC13448	-0.17	-0.31	-0.41	0.15
Obp56c (Odorant-binding protein 56c)	DRSC06552	0.78	-1.27	-0.07	0.24
Obp56c (Odorant-binding protein 56c)	DRSC22325	1.15	0.26	0.95	-1.38
Ir51b (Ionotropic receptor 51b)	DRSC05540	0.97	0.45	0.98	-0.21
Lpin (Lipin)	DRSC07241	0.5	0.45	0.47	-0.17
ago (archipelago)	DRSC08463	2.23	6.07	1.75	-4.12
CG14323	DRSC14802	-0.24	0.08	-0.48	0.17
ND-B14.5A (NADH dehydrogenase (ubiquinone) B14.5 A subunit)	DRSC18500	0.05	0.23	0.33	-0.09
CG11523	DRSC11669	-0.05	0.82	-0.12	0.31
Ggt-1 (gamma-glutamyl transpeptidase)	DRSC19993	-0.12	-0.43	0.48	0.04
CG3918	DRSC18331	-2.64	-1.86	-0.2	-4.72
NPFR (Neuropeptide F receptor)	DRSC12173	-1.04	-0.39	-0.5	0.26
CG5402	DRSC15792	0.58	-1.5	0.35	-0.2
ttv (tout-velu)	DRSC07709	0.24	-0.34	-0.1	-0.42
Trs33 (TRAPP subunit 33)	DRSC15990	1.03	1.49	1.75	-0.19
CG4951	DRSC15682	-0.29	0.45	-0.84	0.03
ATPsynB (ATP synthase, subunit B)	DRSC09659	-0.89	0.71	-1.51	1.38
Osi1 (Osiris 1)	DRSC12271	0.48	0.44	0.85	1.02
BORCS7 + CG13430	DRSC06392	-0.22	0.16	-0.03	0.43
BORCS7 + CG13430	DRSC06707	-1.48	-2.32	-1.22	0.6
CG42493	DRSC05309	-0.29	-0.85	-0.27	0.25

Reformatted: 10 of the entries above
TotA (Turandot A) [DRSC13448] → replicate 1, z-score of dpERK with insulin = -0.17; replicate 2, z-score of dpERK with insulin = -0.31; replicate 1, z-score of dpERK under basal conditions = -0.41; replicate 1, z-score of ERK-YFP with insulin = 0.15
Obp56c (Odorant-binding protein 56c) [DRSC06552] → replicate 1, z-score of dpERK with insulin = 0.78; replicate 2, z-score of dpERK with insulin = -1.27; replicate 1, z-score of dpERK under basal conditions = -0.07; replicate 1, z-score of ERK-YFP with insulin = 0.24
Obp56c (Odorant-binding protein 56c) [DRSC22325] → replicate 1, z-score of dpERK with insulin = 1.15; replicate 2, z-score of dpERK with insulin = 0.26; replicate 1, z-score of dpERK under basal conditions = 0.95; replicate 1, z-score of ERK-YFP with insulin = -1.38
Ir51b (Ionotropic receptor 51b) [DRSC05540] → replicate 1, z-score of dpERK with insulin = 0.97; replicate 2, z-score of dpERK with insulin = 0.45; replicate 1, z-score of dpERK under basal conditions = 0.98; replicate 1, z-score of ERK-YFP with insulin = -0.21
Lpin (Lipin) [DRSC07241] → replicate 1, z-score of dpERK with insulin = 0.5; replicate 2, z-score of dpERK with insulin = 0.45; replicate 1, z-score of dpERK under basal conditions = 0.47; replicate 1, z-score of ERK-YFP with insulin = -0.17
ago (archipelago) [DRSC08463] → replicate 1, z-score of dpERK with insulin = 2.23; replicate 2, z-score of dpERK with insulin = 6.07; replicate 1, z-score of dpERK under basal conditions = 1.75; replicate 1, z-score of ERK-YFP with insulin = -4.12
CG14323 [DRSC14802] → replicate 1, z-score of dpERK with insulin = -0.24; replicate 2, z-score of dpERK with insulin = 0.08; replicate 1, z-score of dpERK under basal conditions = -0.48; replicate 1, z-score of ERK-YFP with insulin = 0.17
ND-B14.5A (NADH dehydrogenase (ubiquinone) B14.5 A subunit) [DRSC18500] → replicate 1, z-score of dpERK with insulin = 0.05; replicate 2, z-score of dpERK with insulin = 0.23; replicate 1, z-score of dpERK under basal conditions = 0.33; replicate 1, z-score of ERK-YFP with insulin = -0.09
CG11523 [DRSC11669] → replicate 1, z-score of dpERK with insulin = -0.05; replicate 2, z-score of dpERK with insulin = 0.82; replicate 1, z-score of dpERK under basal conditions = -0.12; replicate 1, z-score of ERK-YFP with insulin = 0.31
Ggt-1 (gamma-glutamyl transpeptidase) [DRSC19993] → replicate 1, z-score of dpERK with insulin = -0.12; replicate 2, z-score of dpERK with insulin = -0.43; replicate 1, z-score of dpERK under basal conditions = 0.48; replicate 1, z-score of ERK-YFP with insulin = 0.04

The listing continues.
predicted target	amplicon	replicate 1, z-score of dpERK with insulin	replicate 2, z-score of dpERK with insulin	replicate 1, z-score of dpERK under basal conditions	replicate 1, z-score of ERK-YFP with insulin
CG10154	DRSC09707	0.17	0.3	-0.7	0.4
CG14823	DRSC10194	0.22	0.94	-0.34	-0.18
cad (caudal)	DRSC03502	-7.87	-6.26	-2.13	-4.41
sol (small optic lobes)	DRSC20587	2.7	1.42	0.71	0.89
insv (insensitive)	DRSC00579	-0.44	0.97	-0.86	-0.01
CG14893	DRSC15015	0.04	-0.49	1.2	0.09
CG11007	DRSC06023	0.6	0.42	-0.73	0.1
Cpr72Eb (Cuticular protein 72Eb)	DRSC09870	0.03	0.23	0.82	0.22
Abp1 (Actin binding protein 1)	DRSC09693	0.18	0.47	0.1	0.18
TwdlY (TweedleY)	DRSC19153	-0.25	0.88	-0.17	0.42
Pdi (Protein disulfide isomerase)	DRSC11250	0.33	0.72	-0.49	-0.22
pk (prickle)	DRSC06178	-0.88	-1.86	-0.61	3.42
pk (prickle)	DRSC07664	-0.52	-0.19	1.29	0.03
pk (prickle)	DRSC22156	-0.37	0.1	0.26	0.3
CG32110	DRSC09220	-0.42	0.26	0.13	0.02
CG15333	DRSC18016	-0.25	-0.13	0.89	0.38
CG15333	DRSC18153	0.41	0.72	0.51	0.03
naz (nazgul)	DRSC14790	0.83	-0.39	-0.1	0.36
naz (nazgul)	DRSC16199	0.19	0.22	0.23	-0.4
CG10132	DRSC02013	-0.04	-0.17	1.03	0.63
yki (yorkie)	DRSC04437	0.12	0.05	-0.1	-0.23
CG14868	DRSC14991	1.51	1.56	1.04	-0.55
unc80 (uncoordinated 80)	DRSC15329	0.69	-0.07	0.56	-0.01
Ir67c (Ionotropic receptor 67c)	DRSC22097	-0.07	-3.23	0.08	-0.04
MED1 (Mediator complex subunit 1)	DRSC11808	0.97	0.66	-1.42	0.22
Grl40a (Gustatory receptor-like 40a)	DRSC03677	0.62	-0.16	0.55	-0.39
CG13606	DRSC14609	1.69	0.07	-0.32	-0.35
RpS3A (Ribosomal protein S3A)	DRSC17168	-1.25	0.07	-1.73	-4.23
CheA87a (Chemosensory protein A 87a)	DRSC14839	0.26	0.34	0.4	0.38
Cpr78E (Cuticular protein 78E)	DRSC11807	0.4	0.62	-0.28	-0.06
CG8908	DRSC07297	0.13	-0.44	1.31	0.08
mRpL22 (mitochondrial ribosomal protein L22)	DRSC19915	-1.18	0.68	-1.33	1.21
CG8026	DRSC07055	0.48	1.01	-0.23	0.08
CG8026	DRSC07056	-0.38	0.12	-0.28	0.26
CG9083 + Tpc2	DRSC04625	0.48	0.1	0.16	0.17
GNBP1 (Gram-negative bacteria binding protein 1)	DRSC11169	0.51	0.09	0.64	0.38
GNBP1 (Gram-negative bacteria binding protein 1)	DRSC21836	0.14	0.15	-0.66	-0.38
CG31161	DRSC16144	-1	0	0.47	2.12
Nlg1 (Neuroligin 1)	DRSC12485	-2.22	-1.85	-0.85	-0.72
Nlg1 (Neuroligin 1)	DRSC12532	-0.63	-0.46	0.88	0.01
Nlg1 (Neuroligin 1)	DRSC12533	0.2	-1.62	0.36	-0.63
Nlg1 (Neuroligin 1)	DRSC12539	0.18	0.14	0.45	-0.67
